{
  "sequences": {"note": "Protein sequences, listed by entry. Tags and fused reporters are not part of them.", "UniProt P18054, whole entry, looked up": "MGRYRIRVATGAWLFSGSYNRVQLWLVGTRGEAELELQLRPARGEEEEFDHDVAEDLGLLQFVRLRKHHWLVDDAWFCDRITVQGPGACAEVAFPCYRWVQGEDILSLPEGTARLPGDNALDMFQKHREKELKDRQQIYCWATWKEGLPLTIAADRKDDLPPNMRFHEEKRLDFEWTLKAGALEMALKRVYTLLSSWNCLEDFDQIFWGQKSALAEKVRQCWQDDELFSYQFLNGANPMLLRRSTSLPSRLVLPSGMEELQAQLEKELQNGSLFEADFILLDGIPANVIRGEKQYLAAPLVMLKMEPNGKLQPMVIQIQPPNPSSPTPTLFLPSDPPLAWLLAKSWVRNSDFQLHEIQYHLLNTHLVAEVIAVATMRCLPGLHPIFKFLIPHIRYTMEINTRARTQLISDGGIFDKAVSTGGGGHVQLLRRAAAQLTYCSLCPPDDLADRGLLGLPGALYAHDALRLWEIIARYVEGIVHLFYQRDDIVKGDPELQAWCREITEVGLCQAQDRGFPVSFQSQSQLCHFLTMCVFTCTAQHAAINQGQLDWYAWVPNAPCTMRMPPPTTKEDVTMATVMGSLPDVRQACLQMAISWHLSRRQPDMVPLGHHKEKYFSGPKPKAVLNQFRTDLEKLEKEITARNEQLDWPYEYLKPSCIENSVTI"},
  "source": "PubChem BioAssay AID1671190",
  "about": "(National Center for Advancing Translational Sciences (NCATS), 2021)",
  "note": "The whole screen tested about 580,000 compounds, of which about 6,100 (1.1%) were called active. The inconclusive results got no clear call from the source; some entries with a clear call stand among them for comparison. Calls come from the whole dose curve; as a rule, active = well fitted inhibition curve with a large enough effect; inconclusive = small, poorly fitted or top-dose-only effect, or another doubt; inactive = no such curve, though single readings can be large or run the other way. A potency beside an inconclusive call is a rough fit, not a confirmed value. A structure can be active in one record and inactive in another.",
  "data": [
    {"target": "Polyunsaturated fatty acid lipoxygenase ALOX12 (Homo sapiens) (UniProt P18054)", "assay": "Primary qHTS assay for inhibitors of human arachidonate 12S-lipoxygenase (ALOX12): Round 2; note: potency is the fitted concentration of half-maximal effect; for activity change, negative = inhibition: % is set by controls: 0 for no effect and ±100 for the full control effect", "conditions": "purified 12hLO, xylenol orange hydroperoxide absorbance; activity change, negative = inhibition: at 108 µM (top of the series) unless noted", "method_in_brief": "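Hydroperoxide product was detected by ferrous iron/xylenol orange as the 573 to 405 nm absorbance ratio. Arachidonic acid at 40 uM (final) was turned over for 30 min at room temperature by 150 nM human 12hLO, pH 7.0 Hepes buffer, after 15 min compound preincubation.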", "values": [
      {"molecule": "CCCNC(=O)C1(C)CCCN(CC(=O)c2ccc3c(c2)OCCO3)C1", "note": "(stereo not drawn)", "Potency": "inconclusive: 8.91 µM [inhibitor, partial curve, poor fit]"},
      {"molecule": "CCn1cc(-c2cc(C(=O)O)c3ccccc3n2)c(C)n1", "Potency": "active: 12.6 µM"},
      {"molecule": "COc1cc(/C=N/OCCOc2ccc(C#N)cc2)cc(Cl)c1OC", "activity change, negative = inhibition": "inactive: -0.498%"},
      {"molecule": "O=C(c1cc(=O)c2cc(Cl)ccc2o1)N(Cc1ccccc1)c1ccccn1", "Potency": "inconclusive: 50.1 µM [inhibitor, partial curve, poor fit]"},
      {"molecule": "O=[N+]([O-])CC(=Nc1ccc(Cl)cc1)N/N=C\\c1oc(O)c2ccccc12", "Potency": "active: 3.98 µM"},
      {"molecule": "CCOc1ccc(OCCCCN2CCCC2)cc1", "Potency": "inconclusive: 2.51 µM [inhibitor, full curve, poor fit]"},
      {"molecule": "CC(C)c1noc([C@@H]2C[C@H]3C(=O)NCCCCCCN(C(=O)CC4CCCCC4)[C@H]3C2)n1", "Potency": "inconclusive: 79.4 µM [inhibitor, single point]"},
      {"molecule": "NC(c1csc(Nc2cnccn2)n1)c1ccccc1Cl", "note": "(stereo not drawn)", "Potency": "inconclusive: 79.4 µM [inhibitor, partial curve, poor fit]"},
      {"molecule": "Cc1c(Cl)cccc1NC(=O)CCN1CCN(Cc2cccc3ccccc23)CC1", "Potency": "inconclusive: 14.1 µM [inhibitor, full curve, poor fit]"},
      {"molecule": "CCCC(C)c1nnc(NC(=O)C(=O)OCC)s1", "note": "(stereo not drawn)", "Potency": "inconclusive: 1.41 µM [inhibitor, full curve]"},
      {"molecule": "COC(=O)c1ccc2nc(-c3ccc(F)cc3)c(Cc3ccccc3)n2c1", "Potency": "inconclusive: 6.31 µM [inhibitor, full curve, poor fit]"},
      {"molecule": "CCc1cc(-c2nnn(CCC3COCCO3)c2C(C)(C)O)ccc1-c1cn(CCc2c[nH]c3ccccc23)nn1", "note": "(stereo not drawn)", "activity change, negative = inhibition": "inactive: 13.2%"},
      {"molecule": "Oc1ccc(C[C@H]2CNCCN2CCc2cc(C(F)(F)F)cc(C(F)(F)F)c2)cc1", "Potency": "inconclusive: 50.1 µM [inhibitor, partial curve, poor fit]"},
      {"molecule": "COC[C@@H]1[C@H](C(=O)N2CCN(Cc3ccccc3)CC2)CCC(=O)N1C", "activity change, negative = inhibition": "inactive: 44.6%"},
      {"molecule": "COC(=O)C(NC(=O)Nc1ccccc1)C12CC3CC(CC(C3)C1)C2", "note": "(stereo not drawn)", "Potency": "inconclusive: 56.2 µM [inhibitor, partial curve, poor fit]"},
      {"molecule": "COc1ccc(S(=O)(=O)N=Nc2c(O)[nH]c3ccccc23)cc1", "Potency": "inconclusive: 14.1 µM [inhibitor, partial curve, poor fit]"},
      {"molecule": "CCOC(=O)c1ccc(NC(=O)Cn2c(=O)n(CC)c(=O)c3c2cc(C)n3C)cc1", "Potency": "inconclusive: 89.1 µM [inhibitor, single point]"},
      {"molecule": "Cc1ccc(-n2cc(-c3ccccc3)c3c(N4CCN(CCO)CC4)ncnc32)cc1Cl", "Potency": "inconclusive: 56.2 µM [inhibitor, partial curve, poor fit]"},
      {"molecule": "COc1ccc2c3n(nc2c1)C(C)CN=C3c1ccc(Cl)cc1", "note": "(stereo not drawn)", "Potency": "inconclusive: 44.7 µM [inhibitor, partial curve, poor fit]"},
      {"molecule": "Cc1ccc(C(=O)N/C(=C/c2ccco2)C(=O)NCc2ccco2)cc1", "Potency": "inconclusive: 44.7 µM [inhibitor, partial curve, poor fit]"},
      {"molecule": "Cc1ccc(NC(=O)N2CCCN(S(C)(=O)=O)C(c3ccccc3)CC(=O)NCC2)cc1C", "note": "(stereo not drawn)", "activity change, negative = inhibition": "inactive: 7.72%"},
      {"molecule": "COc1cc(NS(=O)(=O)c2ccc(NC(=S)NC(=O)c3cccs3)cc2)nc(OC)n1", "Potency": "active: 31.6 µM"},
      {"molecule": "COC(=O)C[C@H]1CC[C@H](NC(=O)c2ccc(F)cc2)[C@@H](CO)O1", "activity change, negative = inhibition": "inactive: -2.55%"},
      {"molecule": "O=C(N/C(=C/c1ccco1)C(=O)N1CCCC1)c1cccs1", "Potency": "inconclusive: 31.6 µM [inhibitor, partial curve, poor fit]"},
      {"molecule": "CC(Nc1nc(N2CCCCC2)nc2ccccc12)c1ccccc1", "note": "(stereo not drawn)", "Potency": "inconclusive: 7.08 µM [inhibitor, single point]"},
      {"molecule": "O=C(NCc1ccccc1)c1onc(CSc2ccccn2)c1C(=O)NCc1ccccc1", "activity change, negative = inhibition": "inconclusive: -31.3% [inhibitor]"},
      {"molecule": "CN1C(=O)[C@@H]2C[C@@H](CN2C(=O)CCC(=O)O)Oc2ccccc21", "Potency": "inconclusive: 56.2 µM [inhibitor, partial curve, poor fit]"},
      {"molecule": "Cc1ccc(CCNC(=O)CSCc2nc(-c3ccc(C)cc3)oc2C)cc1", "Potency": "inconclusive: 141 µM [inhibitor, single point]"},
      {"molecule": "CC(C)CNC(=O)CCNC(=O)c1ccc(C(C)(C)C)cc1", "Potency": "inconclusive: 89.1 µM [inhibitor, single point]"},
      {"molecule": "Cc1ccc(S(=O)(=O)N(C(=O)c2ccco2)c2cc3sc(=O)oc3c3ccccc23)cc1", "Potency": "active: 28.2 µM"},
      {"molecule": "COc1ccc(-c2ccc3oc(-c4ccc(OC)cc4)c(C#CCO)c3c2)cc1", "Potency": "inconclusive: 44.7 µM [inhibitor, partial curve, poor fit]"},
      {"molecule": "S=C(NCCCN1CCN(CCCNC(=S)NC2CCCCC2)CC1)NC1CCCCC1", "Potency": "inconclusive: 50.1 µM [inhibitor, partial curve]"},
      {"molecule": "CC(C)c1ccc(NC(=O)Cn2c3ncccc3c(=O)n2-c2ccccc2)cc1", "Potency": "inconclusive: 50.1 µM [inhibitor, partial curve, poor fit]"},
      {"molecule": "Cc1ccc(C(=O)C(C)OC(=O)c2n[nH]c(=O)c3ccccc23)cc1", "note": "(stereo not drawn)", "Potency": "inconclusive: 0.398 µM [inhibitor, full curve, poor fit]"},
      {"molecule": "CS(=O)(=O)/C(C#N)=C/c1cccn1S(=O)(=O)c1ccc([N+](=O)[O-])cc1", "Potency": "inconclusive: 31.6 µM [inhibitor, partial curve, poor fit]"},
      {"molecule": "CCN(CC)CCN1C(=O)C(=O)/C(=C(/O)c2ccc(OCc3cccc(C)c3)cc2)C1c1ccco1", "note": "(stereo not drawn)", "Potency": "inconclusive: 44.7 µM [inhibitor, partial curve, poor fit]"},
      {"molecule": "CC(C)C(NC(=O)Cc1n[nH]c(=O)c2ccccc12)c1ccc(C(C)(C)C)cc1", "note": "(stereo not drawn)", "activity change, negative = inhibition": "inactive: 0.49%"},
      {"molecule": "Cc1ccc2nc(C)c3c(c2c1)OC(C(C)(Cl)Br)C3", "note": "(stereo not drawn)", "activity change, negative = inhibition": "inactive: 0%"},
      {"molecule": "COc1cc(OC)cc(-c2n[nH]c(=S)n2-c2ccc3c(c2)OCCO3)c1", "activity change, negative = inhibition": "inactive: -20.1%"},
      {"molecule": "Cc1ccc(Cn2nc(C)c(C(=O)OCC(=O)c3cc(C)n(C(C)C)c3C)c2Cl)cc1", "Potency": "inconclusive: 4.47 µM [inhibitor, full curve]"},
      {"molecule": "O=C1NC[C@H](CCCCN2CCN(CCC3CCCCC3)C(=O)C2=O)N(CCc2ccc(O)cc2)C1=O", "Potency": "inconclusive: 126 µM [inhibitor, single point]"},
      {"molecule": "CCCn1c(NC(=S)Nc2ccccc2)nc2ccccc21", "Potency": "active: 22.4 µM"},
      {"molecule": "COCCCNC(=O)/C(C#N)=C/c1c(C)[nH]c2ccccc12", "Potency": "active: 39.8 µM"},
      {"molecule": "CCOC(=O)C1=C(CN2CCN(C)CC2)NC(=O)NC1c1ccc(F)cc1", "note": "(stereo not drawn)", "Potency": "inconclusive: 56.2 µM [inhibitor, partial curve, poor fit]"},
      {"molecule": "O=[N+]([O-])c1c(NCCCO)cc(N2CCN(Cc3ccc4c(c3)OCO4)CC2)c2nonc12", "Potency": "inconclusive: 50.1 µM [inhibitor, partial curve, poor fit]"},
      {"molecule": "CCN1CCN(c2ccc(S(=O)(=O)N3CCCCC3)cc2NC(=O)/C=C/c2ccc(OC(F)F)cc2)CC1", "Potency": "inconclusive: 20 µM [inhibitor, partial curve, poor fit]"},
      {"molecule": "C/C(=N/NC(N)=S)C1CC2CCC1C2", "note": "(stereo not drawn)", "Potency": "inconclusive: 50.1 µM [inhibitor, partial curve, poor fit]"},
      {"molecule": "COC(=O)c1cc2c(c3c4ccccc4n(S(=O)(=O)c4cccc(C)c4)c13)C(=O)N(Cc1ccccc1)C2", "Potency": "inconclusive: 22.4 µM [inhibitor, partial curve]"},
      {"molecule": "CCN1CCN(C(=O)c2ccc(Cn3c(=O)[nH]c4cc(OC)c(OC)cc4c3=O)cc2)CC1", "activity change, negative = inhibition": "inactive: -3.59%"},
      {"molecule": "S=c1[nH]nc(-c2cc(-c3ccsc3)n[nH]2)n1-c1cccc2ccccc12", "Potency": "inconclusive: 44.7 µM [inhibitor, partial curve, poor fit]"},
      {"molecule": "COc1ccc(-c2cn3cccc(C)c3n2)cc1Br", "Potency": "inconclusive: 22.4 µM [inhibitor, partial curve, poor fit]"},
      {"molecule": "COc1cc(OC)c2c(-c3ccccc3)cc(=O)oc2c1C(CC(=O)N1CCCC1)c1ccc2c(c1)OCO2", "note": "(stereo not drawn)", "Potency": "active: 50.1 µM"},
      {"molecule": "O=C(CSC1=NS(=O)(=O)c2ccccc2N1)NCc1ccc(F)cc1", "Potency": "inconclusive: 3.55 µM [inhibitor, full curve, poor fit]"},
      {"molecule": "CCOC(=O)c1c(N)sc(C(=O)OCCOC)c1C", "activity change, negative = inhibition": "inactive: -26.6%"},
      {"molecule": "CCN(C(=O)COC(=O)c1ccccc1Nc1ccccc1)c1c(N)n(Cc2ccccc2)c(=O)[nH]c1=O", "Potency": "inconclusive: 100 µM [inhibitor, single point]"},
      {"molecule": "CC(=O)CC(C)=Nc1ccc(Br)cc1", "activity change, negative = inhibition": "inactive: -8.21%"},
      {"molecule": "Cn1c(=O)c2cc(NC(=O)Nc3cccnc3)ccc2n1Cc1ccc(Cl)cc1", "Potency": "inconclusive: 20 µM [inhibitor, partial curve, poor fit]"},
      {"molecule": "Cn1ccc2c(-c3ccc(C(C)(C)C)cc3)cc3c(c21)C1CCC3C1", "note": "(stereo not drawn)", "Potency": "inconclusive: 39.8 µM [inhibitor, single point]"},
      {"molecule": "N#CC1(NC(=O)CSc2nccn2C2CC2)CCCC1", "Potency": "inconclusive: 89.1 µM [inhibitor, single point]"},
      {"molecule": "CCOc1ccc(-c2cc3ccccc3[nH]2)cc1", "Potency": "active: 12.6 µM"},
      {"molecule": "COc1ccccc1-c1c(C(F)(F)F)oc2cc(OS(C)(=O)=O)ccc2c1=O", "activity change, negative = inhibition": "inactive: 9.38%"},
      {"molecule": "Cc1ccc(C)c(NC(=O)c2ncn[nH]2)c1", "Potency": "inconclusive: 44.7 µM [inhibitor, partial curve, poor fit]"},
      {"molecule": "Cc1ccc(C)c(SCC(=O)Nc2ccc(S(=O)(=O)Nc3ncccn3)cc2)c1", "Potency": "inconclusive: 8.91 µM [inhibitor, full curve, poor fit]"}
    ]}
  ]
}
